No constants are given. Whether binding was seen depends on the method and setting. Some binding calls cover weakened binding; strength is not graded here.
T1: recombinant PN (rPN) (UniProt Q15063)
T1 sequence: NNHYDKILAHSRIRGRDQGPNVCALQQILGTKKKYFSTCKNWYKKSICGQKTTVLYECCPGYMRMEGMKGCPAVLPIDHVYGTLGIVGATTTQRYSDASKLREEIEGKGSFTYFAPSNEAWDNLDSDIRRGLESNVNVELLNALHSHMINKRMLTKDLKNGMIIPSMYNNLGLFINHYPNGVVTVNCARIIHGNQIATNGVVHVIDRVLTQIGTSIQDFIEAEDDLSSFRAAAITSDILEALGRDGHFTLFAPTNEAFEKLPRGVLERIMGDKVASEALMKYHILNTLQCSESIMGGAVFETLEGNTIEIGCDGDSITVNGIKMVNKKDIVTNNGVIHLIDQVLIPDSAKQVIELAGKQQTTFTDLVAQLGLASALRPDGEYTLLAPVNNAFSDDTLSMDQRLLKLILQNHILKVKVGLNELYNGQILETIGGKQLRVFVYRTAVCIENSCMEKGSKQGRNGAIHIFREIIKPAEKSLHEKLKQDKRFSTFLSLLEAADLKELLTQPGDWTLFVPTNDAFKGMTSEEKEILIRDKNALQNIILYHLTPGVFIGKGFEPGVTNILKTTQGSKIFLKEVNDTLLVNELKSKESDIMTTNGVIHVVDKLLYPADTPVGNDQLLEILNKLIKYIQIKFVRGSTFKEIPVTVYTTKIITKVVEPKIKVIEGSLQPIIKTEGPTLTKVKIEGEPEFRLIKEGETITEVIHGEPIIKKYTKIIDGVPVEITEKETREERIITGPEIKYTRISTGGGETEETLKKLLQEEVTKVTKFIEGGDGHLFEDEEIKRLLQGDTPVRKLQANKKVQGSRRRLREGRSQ

Amino acid sequences for entries named in this document (tags omitted). Residues count along the entry.
UniProt P02769, residues 25-607: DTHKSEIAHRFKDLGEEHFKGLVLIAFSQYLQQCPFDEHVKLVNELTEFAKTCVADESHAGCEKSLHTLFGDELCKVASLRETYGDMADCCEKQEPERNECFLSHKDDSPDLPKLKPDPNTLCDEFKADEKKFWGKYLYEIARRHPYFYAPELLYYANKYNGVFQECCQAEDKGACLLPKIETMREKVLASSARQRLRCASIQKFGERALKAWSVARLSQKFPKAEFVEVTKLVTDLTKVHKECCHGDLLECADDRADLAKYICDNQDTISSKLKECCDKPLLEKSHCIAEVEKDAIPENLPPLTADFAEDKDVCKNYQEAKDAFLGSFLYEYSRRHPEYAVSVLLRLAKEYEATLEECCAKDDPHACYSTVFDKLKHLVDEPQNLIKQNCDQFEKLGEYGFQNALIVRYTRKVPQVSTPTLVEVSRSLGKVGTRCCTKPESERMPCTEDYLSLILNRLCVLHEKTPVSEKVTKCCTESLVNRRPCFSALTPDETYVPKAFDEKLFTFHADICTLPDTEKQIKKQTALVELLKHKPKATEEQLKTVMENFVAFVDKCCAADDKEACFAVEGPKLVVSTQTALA


Assays:
[1] = biological target: T1, recombinant PN (rPN); test: far-Western, overlay or dot blot; 500 ng rPN or BSA in 1 ul spotted on nitrocellulose, blocked with 5% BSA; selected or blank phage (10^12 pfu in 50 ul) at 4 °C overnight; detected with anti-M13 antibody-HRP and ECL; both purified
[2] = biological target: bovine serum albumin (bovine) (UniProt P02769); test: ITC; MicroCal PEAQ-ITC; 700 nM rPN (or BSA) and 100 nM plain anti-PN peptide in 50 mM Tris, 150 mM NaCl, pH 7.5, in syringe and cell compartments; both purified

Binder | binding [1] | binding [2]
TFATHGKHWAAP [selected phage clone displaying …] | binds | –
TFATHGKHWAAP [plain anti-PN peptide] | – | no binding (tested: 700 nM)
